{
  "sequences": {"note": "Sequences of proteins named here, by UniProt entry; tags and fusion partners are left off.", "UniProt P21796": "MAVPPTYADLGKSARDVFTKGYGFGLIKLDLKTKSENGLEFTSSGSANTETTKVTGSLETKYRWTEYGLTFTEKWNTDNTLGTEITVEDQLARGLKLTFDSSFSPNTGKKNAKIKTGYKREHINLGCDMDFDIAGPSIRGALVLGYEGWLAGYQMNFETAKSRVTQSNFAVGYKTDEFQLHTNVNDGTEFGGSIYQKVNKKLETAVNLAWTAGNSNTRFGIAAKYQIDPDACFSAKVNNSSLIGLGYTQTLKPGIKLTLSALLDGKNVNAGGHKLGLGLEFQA"},
  "source": "paper PMC5542241",
  "biological_target": "T1, hexokinase 2 (human (endogenous in LM3 and BEL-7402 HCC cells)) (UniProt P52789)",
  "T1 sequence": "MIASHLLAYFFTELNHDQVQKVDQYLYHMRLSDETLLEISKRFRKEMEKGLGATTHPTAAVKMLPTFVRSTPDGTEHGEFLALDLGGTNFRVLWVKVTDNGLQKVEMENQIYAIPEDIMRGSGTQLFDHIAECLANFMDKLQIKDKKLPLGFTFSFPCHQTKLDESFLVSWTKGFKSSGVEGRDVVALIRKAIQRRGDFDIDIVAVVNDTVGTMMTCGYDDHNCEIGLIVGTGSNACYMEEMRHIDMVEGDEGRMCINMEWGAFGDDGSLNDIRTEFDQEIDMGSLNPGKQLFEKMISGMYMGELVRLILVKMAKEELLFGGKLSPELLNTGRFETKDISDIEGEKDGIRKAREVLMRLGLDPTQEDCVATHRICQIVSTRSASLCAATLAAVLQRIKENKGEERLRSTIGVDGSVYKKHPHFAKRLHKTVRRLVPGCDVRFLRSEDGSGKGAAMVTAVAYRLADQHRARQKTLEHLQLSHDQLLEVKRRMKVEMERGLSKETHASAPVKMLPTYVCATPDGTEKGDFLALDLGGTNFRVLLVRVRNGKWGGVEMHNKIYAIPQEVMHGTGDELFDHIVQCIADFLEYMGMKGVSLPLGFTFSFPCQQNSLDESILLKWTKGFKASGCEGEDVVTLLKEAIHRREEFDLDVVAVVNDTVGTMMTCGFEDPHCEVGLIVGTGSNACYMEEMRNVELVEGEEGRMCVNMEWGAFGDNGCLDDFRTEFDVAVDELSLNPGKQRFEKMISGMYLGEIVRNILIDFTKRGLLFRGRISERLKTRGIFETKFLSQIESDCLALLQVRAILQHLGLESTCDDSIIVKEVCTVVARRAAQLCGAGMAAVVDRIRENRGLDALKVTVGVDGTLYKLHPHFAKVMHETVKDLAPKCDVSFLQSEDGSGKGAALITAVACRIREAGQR",
  "assay": "co-IP; Pierce Co-Immunoprecipitation kit, HK2 or VDAC1 antibody cross-linked to amino link plus coupling resin; lysate of HCC cells after methyl jasmonate (MJ) treatment; immunoblot of HK2 and VDAC1",
  "note": "No constants are given. Whether binding was seen depends on the method and setting. In cells and extracts the contact can be indirect.",
  "data": [
    {"substance": "voltage dependent anion channel 1 (from UniProt P21796 1-283)", "values": [
      {"measurement": "binding", "value": "no binding (condition: after MJ treatment of the cells)"}
    ]}
  ]
}
